Assay results as given in the supplement of paper PMC10849652.
Some of the results follow.

Amino acid sequences for entries named in this document (tags omitted). A change or cut given only in a name is not applied to a line headed by its entry.
UniProt P63165, whole entry, looked up: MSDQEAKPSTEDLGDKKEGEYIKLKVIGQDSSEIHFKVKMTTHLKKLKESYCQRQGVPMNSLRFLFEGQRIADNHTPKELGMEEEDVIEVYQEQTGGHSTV
UniProt Q15208: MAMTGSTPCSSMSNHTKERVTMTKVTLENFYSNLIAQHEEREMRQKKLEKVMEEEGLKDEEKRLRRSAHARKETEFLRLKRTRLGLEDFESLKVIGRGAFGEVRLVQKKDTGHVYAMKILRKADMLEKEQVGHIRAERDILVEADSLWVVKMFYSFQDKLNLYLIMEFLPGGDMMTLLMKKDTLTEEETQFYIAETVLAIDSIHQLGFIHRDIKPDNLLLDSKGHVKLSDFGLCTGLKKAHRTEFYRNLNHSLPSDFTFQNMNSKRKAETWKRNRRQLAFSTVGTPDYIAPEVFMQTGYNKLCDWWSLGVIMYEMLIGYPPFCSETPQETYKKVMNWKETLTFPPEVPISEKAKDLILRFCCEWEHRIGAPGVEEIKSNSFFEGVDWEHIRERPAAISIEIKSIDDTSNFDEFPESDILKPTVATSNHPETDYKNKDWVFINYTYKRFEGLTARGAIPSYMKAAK
UniProt Q16563: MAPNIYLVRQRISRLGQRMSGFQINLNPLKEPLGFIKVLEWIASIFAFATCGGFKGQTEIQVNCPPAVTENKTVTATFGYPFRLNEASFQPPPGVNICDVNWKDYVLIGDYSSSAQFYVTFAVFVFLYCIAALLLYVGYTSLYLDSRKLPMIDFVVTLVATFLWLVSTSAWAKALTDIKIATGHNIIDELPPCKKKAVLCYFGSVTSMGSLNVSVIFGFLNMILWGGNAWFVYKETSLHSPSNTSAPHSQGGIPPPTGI
UniProt O75683: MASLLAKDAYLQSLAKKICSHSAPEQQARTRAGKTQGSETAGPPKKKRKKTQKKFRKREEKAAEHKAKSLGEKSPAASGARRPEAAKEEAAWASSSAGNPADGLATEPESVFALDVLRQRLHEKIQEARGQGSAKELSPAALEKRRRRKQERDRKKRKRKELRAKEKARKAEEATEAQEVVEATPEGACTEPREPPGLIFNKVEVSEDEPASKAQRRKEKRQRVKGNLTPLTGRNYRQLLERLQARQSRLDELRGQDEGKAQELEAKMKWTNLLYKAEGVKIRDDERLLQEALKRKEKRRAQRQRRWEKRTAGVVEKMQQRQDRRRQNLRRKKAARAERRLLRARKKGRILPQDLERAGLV
UniProt P51687: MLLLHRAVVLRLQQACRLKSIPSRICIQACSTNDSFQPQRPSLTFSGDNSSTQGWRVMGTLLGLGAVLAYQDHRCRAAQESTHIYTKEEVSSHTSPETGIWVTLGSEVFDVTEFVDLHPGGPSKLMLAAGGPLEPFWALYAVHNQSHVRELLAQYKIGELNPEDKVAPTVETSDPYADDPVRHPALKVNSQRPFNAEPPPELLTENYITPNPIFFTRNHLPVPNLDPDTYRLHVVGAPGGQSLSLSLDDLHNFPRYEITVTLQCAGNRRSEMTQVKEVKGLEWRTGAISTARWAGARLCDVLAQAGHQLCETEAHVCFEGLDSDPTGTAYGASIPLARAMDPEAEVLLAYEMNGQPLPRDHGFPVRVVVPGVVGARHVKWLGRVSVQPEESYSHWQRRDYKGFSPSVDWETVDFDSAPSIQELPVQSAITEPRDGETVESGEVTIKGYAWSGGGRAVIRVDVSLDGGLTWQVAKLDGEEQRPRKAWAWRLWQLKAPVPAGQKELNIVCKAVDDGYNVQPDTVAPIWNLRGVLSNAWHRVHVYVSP
UniProt Q8WXE9: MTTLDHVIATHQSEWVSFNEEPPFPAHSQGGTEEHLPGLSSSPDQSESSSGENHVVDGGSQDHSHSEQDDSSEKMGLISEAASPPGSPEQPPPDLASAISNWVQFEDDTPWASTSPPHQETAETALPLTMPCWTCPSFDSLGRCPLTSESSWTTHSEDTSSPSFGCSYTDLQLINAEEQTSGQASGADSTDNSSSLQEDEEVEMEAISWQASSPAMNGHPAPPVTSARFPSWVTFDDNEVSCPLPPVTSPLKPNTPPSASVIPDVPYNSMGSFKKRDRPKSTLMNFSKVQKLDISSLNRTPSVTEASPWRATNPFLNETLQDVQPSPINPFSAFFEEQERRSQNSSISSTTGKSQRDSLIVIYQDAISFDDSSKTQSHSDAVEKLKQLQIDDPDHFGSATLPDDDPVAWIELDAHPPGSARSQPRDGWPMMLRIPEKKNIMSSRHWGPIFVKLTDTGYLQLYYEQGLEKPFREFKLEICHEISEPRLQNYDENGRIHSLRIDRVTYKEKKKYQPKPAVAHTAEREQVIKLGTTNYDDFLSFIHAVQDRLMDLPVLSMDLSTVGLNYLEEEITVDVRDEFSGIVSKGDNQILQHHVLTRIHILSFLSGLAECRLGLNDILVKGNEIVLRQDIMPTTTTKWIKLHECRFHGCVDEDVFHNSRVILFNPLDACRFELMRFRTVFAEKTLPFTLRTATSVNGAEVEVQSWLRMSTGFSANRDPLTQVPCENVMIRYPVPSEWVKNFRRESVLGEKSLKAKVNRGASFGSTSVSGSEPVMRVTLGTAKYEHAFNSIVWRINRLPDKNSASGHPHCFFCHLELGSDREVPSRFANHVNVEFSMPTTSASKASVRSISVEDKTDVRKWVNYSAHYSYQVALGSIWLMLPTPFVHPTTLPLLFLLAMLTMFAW
UniProt P53597: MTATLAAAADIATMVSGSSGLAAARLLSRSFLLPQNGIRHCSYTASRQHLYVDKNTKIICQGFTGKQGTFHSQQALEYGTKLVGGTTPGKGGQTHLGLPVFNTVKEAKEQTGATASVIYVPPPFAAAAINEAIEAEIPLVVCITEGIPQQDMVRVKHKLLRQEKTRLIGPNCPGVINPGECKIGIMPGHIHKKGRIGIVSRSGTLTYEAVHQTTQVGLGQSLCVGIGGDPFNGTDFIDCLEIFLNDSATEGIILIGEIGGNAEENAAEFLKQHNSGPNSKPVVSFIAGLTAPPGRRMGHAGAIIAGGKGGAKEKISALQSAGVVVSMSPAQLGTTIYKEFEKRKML
UniProt P46977: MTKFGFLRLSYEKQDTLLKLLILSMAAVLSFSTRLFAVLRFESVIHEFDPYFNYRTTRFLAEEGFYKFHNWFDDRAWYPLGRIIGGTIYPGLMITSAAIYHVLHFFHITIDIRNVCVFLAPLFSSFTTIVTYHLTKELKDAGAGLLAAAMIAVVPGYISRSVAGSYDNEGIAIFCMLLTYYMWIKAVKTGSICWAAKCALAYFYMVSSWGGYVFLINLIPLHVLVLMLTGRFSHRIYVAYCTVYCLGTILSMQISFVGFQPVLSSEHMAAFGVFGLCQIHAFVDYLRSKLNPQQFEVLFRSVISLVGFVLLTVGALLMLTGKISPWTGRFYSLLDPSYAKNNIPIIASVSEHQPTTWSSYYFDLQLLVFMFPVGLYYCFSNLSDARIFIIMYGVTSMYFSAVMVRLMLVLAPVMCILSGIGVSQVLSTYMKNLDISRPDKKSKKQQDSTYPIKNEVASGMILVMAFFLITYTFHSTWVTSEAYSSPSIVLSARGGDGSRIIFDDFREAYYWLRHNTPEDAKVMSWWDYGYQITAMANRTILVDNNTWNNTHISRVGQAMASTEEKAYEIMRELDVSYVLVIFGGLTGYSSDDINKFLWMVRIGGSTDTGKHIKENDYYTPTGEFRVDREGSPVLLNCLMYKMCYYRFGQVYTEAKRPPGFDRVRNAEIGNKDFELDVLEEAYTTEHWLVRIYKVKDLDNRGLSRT
UniProt Q8NHG7: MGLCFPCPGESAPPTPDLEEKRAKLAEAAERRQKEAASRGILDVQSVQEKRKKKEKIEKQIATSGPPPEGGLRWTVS
UniProt P56962: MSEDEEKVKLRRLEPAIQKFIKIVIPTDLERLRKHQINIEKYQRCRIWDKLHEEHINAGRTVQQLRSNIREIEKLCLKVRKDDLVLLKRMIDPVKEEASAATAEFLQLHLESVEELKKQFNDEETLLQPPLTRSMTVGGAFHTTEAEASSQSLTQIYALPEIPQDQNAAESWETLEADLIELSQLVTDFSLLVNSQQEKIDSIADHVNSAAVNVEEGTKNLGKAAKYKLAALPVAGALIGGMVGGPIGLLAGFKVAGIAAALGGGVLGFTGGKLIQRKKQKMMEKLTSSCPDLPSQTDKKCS
UniProt Q96I99: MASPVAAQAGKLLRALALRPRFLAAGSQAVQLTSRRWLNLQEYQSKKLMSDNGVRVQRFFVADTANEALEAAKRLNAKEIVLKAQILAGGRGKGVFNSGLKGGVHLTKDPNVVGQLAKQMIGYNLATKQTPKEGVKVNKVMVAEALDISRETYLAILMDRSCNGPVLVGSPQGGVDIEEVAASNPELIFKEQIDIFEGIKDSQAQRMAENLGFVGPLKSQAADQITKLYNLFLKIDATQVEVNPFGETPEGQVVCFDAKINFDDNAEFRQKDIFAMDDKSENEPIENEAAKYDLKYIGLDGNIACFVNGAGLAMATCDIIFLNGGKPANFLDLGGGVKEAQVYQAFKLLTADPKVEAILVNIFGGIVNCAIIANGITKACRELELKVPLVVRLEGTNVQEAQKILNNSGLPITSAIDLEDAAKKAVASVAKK
UniProt P61956, whole entry, looked up: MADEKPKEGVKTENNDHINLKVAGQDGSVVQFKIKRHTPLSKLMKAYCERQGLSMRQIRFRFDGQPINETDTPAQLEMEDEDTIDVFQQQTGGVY
UniProt Q15573: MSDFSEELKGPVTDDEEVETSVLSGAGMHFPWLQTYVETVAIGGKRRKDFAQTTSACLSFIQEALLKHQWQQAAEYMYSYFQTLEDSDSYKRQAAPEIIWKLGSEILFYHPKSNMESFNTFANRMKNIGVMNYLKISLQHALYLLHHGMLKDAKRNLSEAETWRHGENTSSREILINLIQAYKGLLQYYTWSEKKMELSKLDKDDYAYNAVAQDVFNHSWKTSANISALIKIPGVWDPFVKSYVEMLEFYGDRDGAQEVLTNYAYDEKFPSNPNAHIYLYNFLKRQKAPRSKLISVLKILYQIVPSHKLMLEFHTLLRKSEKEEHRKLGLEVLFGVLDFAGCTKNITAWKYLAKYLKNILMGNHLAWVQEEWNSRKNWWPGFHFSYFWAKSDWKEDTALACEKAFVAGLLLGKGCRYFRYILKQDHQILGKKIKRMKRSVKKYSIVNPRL
UniProt Q15527: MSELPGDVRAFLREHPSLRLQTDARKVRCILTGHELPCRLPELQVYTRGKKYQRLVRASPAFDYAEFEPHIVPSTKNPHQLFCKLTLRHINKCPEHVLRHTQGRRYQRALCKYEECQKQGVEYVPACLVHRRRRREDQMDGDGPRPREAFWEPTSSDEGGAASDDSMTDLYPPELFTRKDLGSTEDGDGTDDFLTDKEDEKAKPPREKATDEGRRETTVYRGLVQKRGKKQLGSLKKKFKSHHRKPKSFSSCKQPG
UniProt Q8IYB8: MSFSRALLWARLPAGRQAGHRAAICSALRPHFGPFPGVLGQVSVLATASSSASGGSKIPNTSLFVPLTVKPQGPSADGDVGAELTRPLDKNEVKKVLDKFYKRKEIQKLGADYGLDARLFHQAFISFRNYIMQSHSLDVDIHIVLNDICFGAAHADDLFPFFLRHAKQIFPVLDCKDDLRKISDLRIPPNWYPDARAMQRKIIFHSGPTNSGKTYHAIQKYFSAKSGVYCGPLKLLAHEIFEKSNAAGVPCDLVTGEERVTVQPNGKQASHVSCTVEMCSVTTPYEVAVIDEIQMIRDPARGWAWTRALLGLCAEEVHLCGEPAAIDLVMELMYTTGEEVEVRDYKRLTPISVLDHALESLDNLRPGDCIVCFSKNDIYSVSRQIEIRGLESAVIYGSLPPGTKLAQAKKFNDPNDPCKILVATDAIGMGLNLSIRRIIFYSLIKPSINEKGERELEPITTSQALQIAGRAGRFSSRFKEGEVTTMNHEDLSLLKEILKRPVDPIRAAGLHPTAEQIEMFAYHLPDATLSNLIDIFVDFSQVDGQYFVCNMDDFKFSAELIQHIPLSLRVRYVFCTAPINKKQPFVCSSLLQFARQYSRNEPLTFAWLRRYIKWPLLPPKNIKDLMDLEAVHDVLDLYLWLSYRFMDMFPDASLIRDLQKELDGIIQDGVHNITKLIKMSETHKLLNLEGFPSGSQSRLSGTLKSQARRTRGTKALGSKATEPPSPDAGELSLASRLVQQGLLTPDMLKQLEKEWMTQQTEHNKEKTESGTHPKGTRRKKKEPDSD
UniProt Q7Z422: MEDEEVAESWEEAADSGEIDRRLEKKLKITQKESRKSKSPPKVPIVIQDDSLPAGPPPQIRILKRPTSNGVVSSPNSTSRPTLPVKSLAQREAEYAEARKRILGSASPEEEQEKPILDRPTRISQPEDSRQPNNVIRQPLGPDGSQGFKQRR
UniProt Q15526: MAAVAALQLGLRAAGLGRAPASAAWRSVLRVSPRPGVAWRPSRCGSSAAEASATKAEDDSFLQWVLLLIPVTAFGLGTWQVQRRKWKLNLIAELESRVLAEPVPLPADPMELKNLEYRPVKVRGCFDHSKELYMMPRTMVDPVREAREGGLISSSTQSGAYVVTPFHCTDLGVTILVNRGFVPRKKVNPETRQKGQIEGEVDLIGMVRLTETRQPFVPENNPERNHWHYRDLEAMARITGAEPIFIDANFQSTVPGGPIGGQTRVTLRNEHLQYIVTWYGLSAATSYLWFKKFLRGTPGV

What was measured:
Experiment in all cases: log2 fold change, soluble protein after heating vs DMSO (PISA); higher = thermal stabilisation; K562 lysate, 10 uM; active = over 0.2 and 3.5 SD of the protein, either way, in both replicates (recomputed)
vemurafenib = compound: CCCS(=O)(=O)Nc1ccc(F)c(C(=O)c2c[nH]c3ncc(-c4ccc(Cl)cc4)cc23)c1F [vemurafenib]
In short: (§1)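 Log-two fold change in thermal stability relative to solvent controls is reported from duplicates. For each sample, crude K562 extract from dounce-homogenised pellets in PBS pH 7.4 with 1 mM MgCl2, at 1 mg/mL protein, was treated with 10 μM compound for 30 min. Aliquots heated for 3 min across 48°C-58°C were pooled, brought to 0.5% NP-40 at 4°C and cleared at 21,000xg for 90 min. The supernatant was quantified by TMTpro 16plex LC-MS/MS with channel sums equalised.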

[1] = compound: CCCS(=O)(=O)Nc1ccc(F)c(C(=O)c2c[nH]c3ncc(Cl)cc23)c1F
In short: as §1

barasertib = compound: CCN(CCCOc1ccc2c(Nc3cc(CC(=O)Nc4cccc(F)c4)[nH]n3)ncnc2c1)CCOP(=O)(O)O [barasertib]
In short: as §1

[2] = compound: CC[C@@H]1C(=O)N(C)c2cnc(Nc3ccc(C(=O)NC4CCN(C)CC4)cc3OC)nc2N1C1CCCC1
In short: as §1

volasertib = compound: CC[C@@H]1C(=O)N(C)c2cnc(Nc3ccc(C(=O)N[C@H]4CC[C@H](N5CCN(CC6CC6)CC5)CC4)cc3OC)nc2N1C(C)C [volasertib]
In short: as §1

[3] = compound: CCn1c(C(=O)N(C2CC2)C2CC2)cc2c3c(ncn3C)c(Nc3cc(C)n(C)n3)nc21
In short: as §1

[4] = compound: CCn1cc(-c2ccnc3[nH]c(-c4cccc(CN(C)C)c4)cc23)c(-c2ccc(NC(=O)N(C)C)cc2)n1
In short: as §1

[5] = compound: CN1CCC(CNc2ccc3ncc(-c4cccc(OC(F)(F)F)c4)n3n2)CC1
In short: as §1

saracatinib = compound: CN1CCN(CCOc2cc(OC3CCOCC3)c3c(Nc4c(Cl)ccc5c4OCO5)ncnc3c2)CC1 [saracatinib]
In short: as §1

sotrastaurin = compound: CN1CCN(c2nc(C3=C(c4c[nH]c5ccccc45)C(=O)NC3=O)c3ccccc3n2)CC1 [sotrastaurin]
In short: as §1

| Target | log2 fold change (vemurafenib) | log2 fold change [1] | log2 fold change (barasertib) | log2 fold change [2] | log2 fold change (volasertib) | log2 fold change [3] | log2 fold change [4] | log2 fold change [5] | log2 fold change (saracatinib) | log2 fold change (sotrastaurin) |
| --- | --- | --- | --- | --- | --- | --- | --- | --- | --- | --- |
| SUMO1 (UniProt P63165) | inactive: 0.048 | inactive: -0.031 | inactive: 0.094 | inactive: -0.021 | inactive: -0.003 | inactive: 0.004 | inactive: -0.093 | inactive: 0.031 | inactive: 0.018 | inactive: 0.057 |
| STK38 (UniProt Q15208) | inactive: -0.046 | inactive: -0.012 | inactive: 0.031 | inactive: -0.112 | inactive: -0.092 | inactive: 0.019 | inactive: 0.122 | inactive: 0.002 | inactive: -0.019 | inactive: 0.02 |
| SUDS3 (UniProt Q9H7L9) | inactive: -0.04 | inactive: 0.032 | inactive: 0.02 | inactive: 0.023 | inactive: 0.018 | inactive: -0.043 | inactive: -0.029 | inactive: 0.02 | inactive: 0.02 | inactive: -0.007 |
| SUPT5H (UniProt O00267) | inactive: 0.032 | inactive: 0.012 | inactive: 0.007 | inactive: -0.006 | inactive: 0.002 | inactive: 0.011 | inactive: 0.09 | inactive: -0.022 | inactive: -0.015 | inactive: -0.006 |
| SYPL1 (UniProt Q16563) | inactive: -0.006 | inactive: -0.019 | inactive: 0.076 | inactive: 0.004 | inactive: 0.032 | inactive: -0.011 | active: -0.418 | inactive: 0.194 | inactive: 0.01 | inactive: 0.023 |
| SYP (UniProt P08247) | inactive: -0.026 | inactive: -0.021 | inactive: 0.057 | inactive: -0.012 | inactive: 0.069 | inactive: 0.045 | inactive: 0.076 | inactive: -0.003 | inactive: 0.047 | inactive: 0.026 |
| SURF6 (UniProt O75683) | inactive: 0.003 | inactive: 0.015 | inactive: 0.029 | inactive: 0.048 | inactive: -0.005 | inactive: 0.039 | inactive: -0.005 | inactive: 0.027 | inactive: 0.023 | inactive: 0.005 |
| SUOX (UniProt P51687) | inactive: -0.06 | inactive: 0.006 | inactive: 0.02 | inactive: -0.098 | inactive: 0.003 | inactive: 0.013 | inactive: -0.014 | inactive: 0.022 | inactive: 0.024 | inactive: 0.03 |
| STON2 isoform 3 (UniProt Q8WXE9) | inactive: 0.057 | inactive: -0.157 | inactive: 0.003 | inactive: -0.061 | inactive: -0.115 | inactive: 0.028 | inactive: -0.045 | inactive: 0 | inactive: 0.027 | inactive: 0.079 |
| SURF4 (UniProt O15260) | inactive: -0.01 | inactive: -0.02 | inactive: 0.027 | inactive: 0.038 | inactive: 0.031 | inactive: 0.021 | inactive: -0.184 | inactive: 0.079 | inactive: 0.044 | inactive: 0.02 |
| SUCLG1 (UniProt P53597) | inactive: 0.012 | inactive: 0.001 | inactive: 0.019 | inactive: -0.056 | inactive: -0.047 | inactive: 0.034 | inactive: 0.03 | inactive: -0.018 | inactive: -0.044 | inactive: -0.018 |
| TACC1 (UniProt O75410) | inactive: -0.044 | inactive: -0.003 | inactive: 0.044 | inactive: 0.056 | inactive: 0.008 | inactive: 0.032 | inactive: 0.054 | inactive: -0.082 | inactive: 0.041 | inactive: -0.042 |
| STK24 (UniProt B4DR80) | inactive: 0.009 | inactive: 0.005 | inactive: 0 | inactive: -0.03 | inactive: -0.017 | inactive: 0.005 | inactive: 0.02 | inactive: -0.007 | inactive: 0.005 | inactive: 0.046 |
| SYNRG (UniProt Q9UMZ2) | inactive: -0.006 | inactive: 0.022 | inactive: 0.015 | inactive: 0.037 | inactive: 0 | inactive: -0.019 | inactive: 0.017 | inactive: -0.1 | inactive: 0.013 | inactive: -0.009 |
| STT3A (UniProt P46977) | inactive: -0.08 | inactive: 0.015 | inactive: 0.022 | inactive: -0.031 | inactive: 0.028 | inactive: 0.024 | inactive: -0.052 | inactive: 0.017 | inactive: -0.004 | inactive: 0.019 |
| SVIP (UniProt Q8NHG7) | inactive: -0.014 | inactive: 0.014 | inactive: 0.051 | inactive: 0.079 | inactive: 0.095 | inactive: -0.11 | inactive: 0.033 | inactive: 0.005 | inactive: 0 | inactive: -0.086 |

| Target | log2 fold change (vemurafenib) | log2 fold change [1] | log2 fold change (barasertib) | log2 fold change [2] | log2 fold change (volasertib) | log2 fold change [3] | log2 fold change [4] | log2 fold change [5] | log2 fold change (saracatinib) | log2 fold change (sotrastaurin) |
| --- | --- | --- | --- | --- | --- | --- | --- | --- | --- | --- |
| STXBP1 (UniProt P61764) | inactive: 0.072 | inactive: -0.003 | inactive: -0.014 | inactive: -0.026 | inactive: -0.012 | inactive: -0.005 | inactive: -0.167 | inactive: 0.016 | inactive: 0.03 | inactive: 0.017 |
| STX17 (UniProt P56962) | inactive: 0.095 | inactive: -0.015 | inactive: 0.014 | inactive: 0.007 | inactive: -0.038 | inactive: -0.092 | inactive: -0.033 | inactive: -0.102 | inactive: -0.009 | inactive: -0.006 |
| SUCLG2 (UniProt Q96I99) | inactive: 0.025 | inactive: 0.012 | inactive: 0.052 | inactive: -0.034 | inactive: -0.025 | inactive: 0.025 | inactive: -0.052 | inactive: 0.018 | inactive: -0.007 | inactive: 0.027 |
| SUMO2 (UniProt P61956) | inactive: -0.004 | inactive: -0.104 | inactive: 0.161 | inactive: 0.136 | inactive: 0.039 | inactive: -0.064 | inactive: 0.042 | inactive: 0.012 | inactive: 0.035 | inactive: 0.037 |
| TAF2 (UniProt Q6P1X5) | inactive: 0.092 | inactive: 0.015 | inactive: 0.057 | inactive: 0.04 | inactive: -0.031 | inactive: 0.021 | inactive: 0.053 | inactive: -0.053 | inactive: 0.054 | inactive: -0.001 |
| TACC3 (UniProt C9JWI7) | inactive: 0.026 |  |  |  |  |  |  |  |  |  |
| TAF1A (UniProt Q15573) | inactive: 0.004 |  |  |  |  |  |  |  |  |  |
| STX12 (UniProt Q86Y82) | inactive: 0.046 | inactive: -0.02 | inactive: -0.004 | inactive: 0.078 | inactive: 0.031 | inactive: -0.044 | inactive: -0.033 | inactive: 0.021 | inactive: -0.017 | inactive: 0.01 |
| SURF2 (UniProt Q15527) | inactive: -0.009 | inactive: -0.002 | inactive: -0.007 | inactive: 0.049 | inactive: 0.002 | inactive: 0.127 | inactive: -0.063 | inactive: 0.02 | inactive: 0.004 | inactive: -0.007 |
| SUPV3L1 (UniProt Q8IYB8) | inactive: 0.016 | inactive: 0.032 | inactive: -0.011 | inactive: 0.019 | inactive: -0.002 | inactive: 0 | inactive: -0.006 | inactive: -0.01 | inactive: -0.002 | inactive: 0.014 |
| SZRD1 (UniProt Q7Z422) | inactive: 0.037 | inactive: 0.012 | inactive: -0.039 | inactive: 0.051 | inactive: 0.013 | inactive: -0.061 | inactive: 0.004 | inactive: 0.103 | inactive: 0.025 | inactive: 0.057 |
| SUZ12 (UniProt Q15022) | inactive: 0.012 | inactive: 0.022 | inactive: -0.012 | inactive: 0.024 | inactive: -0.001 | inactive: 0.012 | inactive: -0.026 | inactive: -0.002 | inactive: -0.019 | inactive: 0 |
| TAB2 (UniProt Q9NYJ8) | inactive: -0.103 | inactive: -0.006 | inactive: 0.012 | inactive: 0.053 | inactive: -0.058 | inactive: -0.034 | inactive: -0.036 | inactive: 0.018 | inactive: -0.015 | inactive: 0.013 |
| SURF1 (UniProt Q15526) | inactive: -0.01 | inactive: 0.046 | inactive: -0.008 | inactive: 0.014 | inactive: -0.031 | inactive: 0.028 | inactive: 0.037 | inactive: -0.073 | inactive: 0.017 | inactive: 0.002 |
| SYNJ1 (UniProt O43426) | inactive: -0.035 | inactive: -0.017 | inactive: -0.04 | inactive: 0.054 | inactive: -0.03 | inactive: 0.003 | inactive: -0.032 | inactive: 0.001 | inactive: 0.029 | inactive: -0.003 |

Looked up one by one from the entries so far (2):

| Target | log2 fold change (vemurafenib) | log2 fold change [1] | log2 fold change (barasertib) | log2 fold change [2] | log2 fold change (volasertib) | log2 fold change [3] | log2 fold change [4] | log2 fold change [5] | log2 fold change (saracatinib) | log2 fold change (sotrastaurin) |
| --- | --- | --- | --- | --- | --- | --- | --- | --- | --- | --- |
| TAF1A (UniProt Q15573) | inactive: 0.004 |  |  |  |  |  |  |  |  |  |
| TAF2 (UniProt Q6P1X5) | inactive: 0.092 | inactive: 0.015 | inactive: 0.057 | inactive: 0.04 | inactive: -0.031 | inactive: 0.021 | inactive: 0.053 | inactive: -0.053 | inactive: 0.054 | inactive: -0.001 |
